Experimental data from patent publication US10172356B2, “Bipyridine compound and use of same for noxious arthropod control” (Sumitomo Chemical Company, Limited, priority 2015, dated 2019).
Some of these results come from one statement about several compounds together.

What was measured:
Type in all cases: in vivo
[1] = tested on: cotton aphid (Aphis gossypii); assay: Test Example 1: cotton aphid on cucumber seedling, spray of diluted solution, 500 ppm; settings: 20 mL sprayed on cucumber seedling, after 6 days
[2] = tested on: cotton aphid (Aphis gossypii); assay: Test Example 2: cotton aphid on cucumber seedling, spray of diluted solution, 200 ppm; settings: 20 mL sprayed on cucumber seedling, after 6 days
[3] = tested on: cotton aphid (Aphis gossypii); assay: Test Example 3: cotton aphid on cucumber seedling, irrigation into the plant foot, 200 ppm; settings: 5 mL irrigated into the plant foot, aphids inoculated after 7 days, examined after additional 6 days
[4] = tested on: brown planthopper (Nilaparvata lugens); assay: Test Example 4: brown planthopper on rice seedling, spray, 500 ppm; settings: 10 mL sprayed on rice seedling, after 6 days, 25° C.
[5] = tested on: brown planthopper (Nilaparvata lugens); assay: Test Example 5: brown planthopper on rice seedling, spray, 200 ppm; settings: 10 mL sprayed on rice seedling, after 6 days, 25° C.
[6] = tested on: brown planthopper (Nilaparvata lugens); assay: Test Example 6: brown planthopper on rice seedling, irrigation into the plant foot, 200 ppm; settings: 5 mL irrigated into the plant foot, larvae released after 7 days, examined after additional 6 days
[7] = tested on: western corn rootworm (Diabrotica virgifera virgifera); assay: Test Example 10: western corn rootworm on corn seedling immersed in diluted solution, 500 ppm; settings: corn seedling immersed 30 seconds, second instar larvae, after 5 days, 25° C.
Description: The compound S-1 was mixed with a mixed solution of acetone and polyoxyethylene sorbitan mono-cocoate (acetone and polyoxyethylene sorbitan mono-cocoate=95 : 5 (weight ratio)) a ratio of 50 μL of the mixed solution per 1 mg of the compound S-1, and the resulting mixtures were then diluted with ion-exchange water containing 0.03% by volume of shindain (registered trademark, manufactured by Sumitomo Chemical Co. Ltd.) so that the concentration of the compound S-1 was set to 500 ppm to prepare the diluted solution of the compound S-1.
Corns (Xea mays) were sown on a tray overlaid with damped KimWipes (registered trademark). After corns were grown for 5 days, the entire seedling of the corn was immersed into the diluted solution for 30 seconds. After the seedling was dried, two grains of the seedling were installed in a plastic petri dish ([…]), and ten heads of western corn rootworm (Diabrotica virgifera virgifera) at the second instar larval stages were released onto the petri dish and the petri dish was covered with the lid. The petri dish was held at 25° C. and after 5 days, the number of died insects was counted and the mortality of insects was calculated by the following equation. Mortality of insects (%)=(Number of dead insects/Number of tested insects)×100
Similarly, using the compounds S-2, S-3, S-7, S-10, O-1 and O-2 instead of the compound S-1, the tests were carried out.

[8] = tested on: cabbage moth (Plutella xylostella); assay: Test Example 7: cabbage moth on sprayed cabbage, 500 ppm; settings: 20 mL/cup sprayed on cabbage, second instar larvae, after 5 days, 25° C.
Description: Each of the compounds S-1, S-5, S-7, S-8, S-9, S-10, O-1, and O-2 was made to a formulation according to a similar method to that described in the Formulation example 5 and was then diluted with water so that each of the active ingredient concentration was set to 500 ppm to prepare each of the diluted solution.
A cabbage in the third leaf stage was planted in a polyethylene cup, and thereto was sprayed the diluted solution in ratio 20 mL/cup. After the above-mentioned dilutions were dried, and the stem and leaf thereof was cut and then was stalled in a 50 mL cup, and five heads of cabbage moth (Plutella xylostella) at the second instar larval stages were released into the cup and the cup was covered with the lid. The cup was held at 25° C. and after 5 days, the number of died insects was counted and the mortality of insects was calculated by the following equation. Mortality of insects (%)=(Number of dead insects/Number of tested insects)×100

[9] = tested on: cabbage moth (Plutella xylostella); assay: Test Example 8: cabbage moth on sprayed cabbage, 200 ppm; settings: 20 mL/cup sprayed on cabbage, second instar larvae, after 5 days, 25° C.
Description: Each of the compounds S-7, S-8, S-9, S-10, and O-2 was made to a formulation according to a similar method to that described in the Formulation example 5 and was then diluted with water so that each of the active ingredient concentration was set to 200 ppm to prepare each of the diluted solution.
A cabbage in the third leaf stage was planted in a polyethylene cup, and thereto was sprayed the diluted solution in a ratio of 20 mL/cup. After the above-mentioned dilutions were dried, and the stem and leaf thereof was cut and then was installed in a 50 mL cup, and five heads of cabbage moth (Plutella xylostella) at the second instar larval stages were released into the cup and the cup was covered with the lid. The cup was held at 25° C. and after 5 days, the number of died insects was counted and the mortality insects was calculated by the following equation. Mortality of insects (%)=(Number of dead insects/Number of tested insects)×100

CCS(=O)(=O)c1cccnc1-c1ccc(SC(F)(F)F)c[n+]1[O-] [Compound N-1]
Controlling value [1]: ≥ 90% | Controlling value [2]: ≥ 90% | Controlling value [3]: ≥ 90% | Controlling value [4]: ≥ 90% | Controlling value [5]: ≥ 90% | Controlling value [6]: ≥ 90%

CCS(=O)(=O)c1ccc[n+]([O-])c1-c1ccc(SC(F)(F)C(F)(F)F)c[n+]1[O-] [Compound N-4]
Controlling value [1]: ≥ 90%

CCS(=O)(=O)c1cccnc1-c1ccc([S+]([O-])CC(F)(F)F)cn1 (stereo not drawn) [Compound S-2]
Controlling value [1]: ≥ 90% | Controlling value [2]: ≥ 90% | Controlling value [3]: ≥ 90% | Controlling value [4]: ≥ 90% | Controlling value [5]: ≥ 90% | Mortality of insects [7]: ≥ 80%

CCS(=O)(=O)c1cccnc1-c1ccc(S(=O)(=O)CC(F)(F)F)cn1 [Compound S-3]
Controlling value [1]: ≥ 90% | Mortality of insects [7]: ≥ 80%

CCS(=O)(=O)c1cccnc1-c1ccc([S+]([O-])CC(F)(F)C(F)(F)F)cn1 (stereo not drawn) [Compound S-5]
Controlling value [1]: ≥ 90% | Mortality of insects [8]: ≥ 80%

CCS(=O)(=O)c1cccnc1-c1ccc([S+]([O-])C(F)(F)F)cn1 (stereo not drawn) [Compound S-8]
Controlling value [1]: ≥ 90% | Controlling value [2]: ≥ 90% | Controlling value [3]: ≥ 90% | Controlling value [4]: ≥ 90% | Controlling value [5]: ≥ 90% | Controlling value [6]: ≥ 90% | Mortality of insects [8]: ≥ 80% | Mortality of insects [9]: ≥ 80%

CCS(=O)(=O)c1cccnc1-c1ccc(S(=O)(=O)C(F)(F)F)cn1 [Compound S-9]
Controlling value [1]: ≥ 90% | Controlling value [2]: ≥ 90% | Controlling value [3]: ≥ 90% | Controlling value [4]: ≥ 90% | Controlling value [5]: ≥ 90% | Controlling value [6]: ≥ 90% | Mortality of insects [8]: ≥ 80% | Mortality of insects [9]: ≥ 80%

CCS(=O)(=O)c1cccnc1-c1ccc(SC(F)(F)C(F)(F)F)cn1 [Compound S-10]
Controlling value [1]: ≥ 90% | Controlling value [2]: ≥ 90% | Controlling value [3]: ≥ 90% | Controlling value [4]: ≥ 90% | Controlling value [5]: ≥ 90% | Controlling value [6]: ≥ 90% | Mortality of insects [8]: ≥ 80% | Mortality of insects [9]: ≥ 80% | Mortality of insects [7]: ≥ 80%
